Measured values: patent publication US8921426B2, “Cationic bis-urea compounds as effective antimicrobial agents” (International Business Machines Corporation, priority 2012, dated 2014)
Some entries share one result that the patent states for a list of compounds.

Legend:
Assay type in all cases: cell-based
[1] = system: Bacillus subtilis (B. subtilis) (ATCC No. 23857); test: MIC, broth microdilution, B. subtilis
Procedure: (§1) The minimum inhibitory concentration (MIC) of each of the cationic compounds was measured using a broth microdilution method. The cationic compound were dissolved in DI water at a concentration of 2500 mg/L. The samples were further diluted to 31.25, 62.5, 125, 250.0, 500.0 and 1000.0 mg/L using TSB or YMB. The B. subtilis cells were grown in TSB overnight in an incubator at 37° C. The C. albicans cells were grown in YMB at room temperature. The optical density of the bacterial solution was adjusted to OD600 nm=0.07 to 0.08 by the addition of TSB or YMB. This bacterial solution was further diluted 1000 times. Cationic compound solution (100 microliters) was transferred to each well of 96 well plates (NUNC), followed by the addition of 100 microliters of the bacterial solution. TSB or YMB was used as control. B. subtilis cells were incubated at 37° C. overnight in TSB. C. albicans cells were cultured in YMB at room temperature. C. neoformans were inoculated in MHB broth and grew overnight at 37° C. with shaking at 250 rpm. The optical density readings of bacterial solutions were monitored by measuring OD600nm in predetermined times (0 hours and 18 hours for B. subtilis while 0 hours and 24 hours for C. albicans). The assay was performed in four replicates for each sample and the experiments were repeated at least three times.

[2] = system: Candida albicans (C. albicans) (ATCC No. 10231); test: MIC, broth microdilution, C. albicans; settings: summary statement
Procedure: as §1

[3] = system: Cryptococcus neoformans (C. neoformans); test: MIC, broth microdilution, C. neoformans; settings: summary statement
Procedure: as §1

[4] = system: rat red blood cells; test: Hemolysis of rat red blood cells; settings: concentrations up to 1000 mg/L, one hour at 37° C. (FIG. 10)
Procedure: Fresh rat blood cells were washed with PBS three times. 100 microliters of red blood cell suspension in PBS (4% in volume) was introduced to each well of a 96 well-plate and 100 microliters of cationic compound solution was then added to the well. PBS and TRITON X-100 (0.2%) were used as control. The plates were incubated for one hour at 37° C. The 96 well plates were centrifuged at 4000 rpm for 5 minutes. Aliquots (100 microliters) of the supernatant were transferred to a new 96 well plate. Hemoglobin release was measured at 576 nm using a microplate reader (TECAN). The red blood cells in PBS were used as a negative control. Absorbance of wells with red cells lysed with 0.2% TRITON X-100 was taken as 100% hemolysis. Percentage of hemolysis was calculated using the following formula (OD576nm=optical density at 576 nm): Hemolysis (%)=[(OD576nm of the sample−OD576nm of PBS)/(OD576nm of 0.2% TRITON X-100−OD576nm of PBS)×100. The data were expressed as mean and standard deviation of four replicates and the tests were repeated three times.

[5] = system: primary human dermal fibroblasts; test: MTT cytotoxicity assay; settings: up to a concentration of 1000 mg/L, 24 hours at 37° C.
Procedure: The cytotoxicity tests of the cationic bis-urea compounds were performed in primary human fibroblasts using MTT assay. The cells were cultured in DMEM supplemented with 10% FBS, 5% penicillin, 2 mM L-glutamine (Sigma) and incubated at 37° C., 5% CO2. The cells were seeded onto 96-well plates at a density of 10,000 cells per well and incubated for one day. Cationic compounds were diluted with the growth medium to give final concentrations of 31.25, 62.5, 125, 250.0, 500.0, 1000.0 and 2500.0 mg/L. The media were replaced with 100 microliters of the pre-prepared samples. The plates were then returned to the incubator and maintained in 5% CO2 at 37° C. for 24 hours. Fresh growth media (100 microliters) containing 10% MTT solution (5 mg/mL) were used to replace the mixture in each well after 24 hours. The plates were then returned to the incubator and maintained in 5% CO2 at 37° C. for a further 4 hours. The growth medium and excess MTT in each well were then removed. DMSO (150 microliters) was then added to each well to dissolve the internalized purple formazan crystals. An aliquot of 100 microliters was taken from each well and transferred to a fresh 96-well plate. […] The absorbance readings of the formazan crystals were taken to be the absorbance at 550 nm minus the absorbance at 690 nm. The results were expressed as a percentage of the absorbance of the blank control.

SMILES	activity against B. subtilis (in words) [1]	concentration at which active inhibitor of C. albicans [2]	concentration at which active inhibitor of C. neoformans [3]	percent hemolysis [4]	cell viability of primary human fibroblasts [5] [%]
C[N+](C)(C)CCCNC(=O)Nc1ccc(CNC(=O)c2ccc(C(=O)NCc3ccc(NC(=O)NCCC[N+](C)(C)C)cc3)cc2)cc1.[I-].[I-] [CBU1]	weakly active	–	–	–	–
NCCCCNC(=O)Nc1ccc(CNC(=O)c2ccc(C(=O)NCc3ccc(NC(=O)NCCCCN)cc3)cc2)cc1 [CBU2]	weakly active	less than 250 mg/L	less than 250 mg/L	Less than 4%	≥ 90
C[N+](C)(C)CCCNC(=O)Nc1ccc(NC(=O)c2ccc(C(=O)Nc3ccc(NC(=O)NCCC[N+](C)(C)C)cc3)cc2)cc1.[I-].[I-] [CBU3]	weakly active	–	–	–	–
NCCNC(=O)Nc1ccc(CNC(=O)c2ccc(C(=O)NCc3ccc(NC(=O)NCCN)cc3)cc2)cc1 [CBU5]	–	–	–	Less than 4%	–
NCCCCCCNC(=O)Nc1ccc(CNC(=O)c2ccc(C(=O)NCc3ccc(NC(=O)NCCCCCCN)cc3)cc2)cc1 [CBU6]	–	–	–	Less than 4%	–
NCc1ccc(CNC(=O)Nc2ccc(CNC(=O)c3ccc(C(=O)NCc4ccc(NC(=O)NCc5ccc(CN)cc5)cc4)cc3)cc2)cc1 [CBU7]	–	–	–	Less than 4%	≥ 90
